Measured values published in PMC7188950.
Results are given in words; binding and its absence hold for the method and conditions named. In cells and extracts the contact can be indirect. Some entries that bind do so weakly or less than the wild type.

Amino acid sequences for entries named in this document (tags omitted). Residues count along the entry.
UniProt Q9ERS2: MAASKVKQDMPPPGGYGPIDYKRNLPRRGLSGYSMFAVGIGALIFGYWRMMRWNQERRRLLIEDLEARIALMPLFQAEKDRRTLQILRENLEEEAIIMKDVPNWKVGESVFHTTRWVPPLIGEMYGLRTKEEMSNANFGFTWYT
UniProt P42227: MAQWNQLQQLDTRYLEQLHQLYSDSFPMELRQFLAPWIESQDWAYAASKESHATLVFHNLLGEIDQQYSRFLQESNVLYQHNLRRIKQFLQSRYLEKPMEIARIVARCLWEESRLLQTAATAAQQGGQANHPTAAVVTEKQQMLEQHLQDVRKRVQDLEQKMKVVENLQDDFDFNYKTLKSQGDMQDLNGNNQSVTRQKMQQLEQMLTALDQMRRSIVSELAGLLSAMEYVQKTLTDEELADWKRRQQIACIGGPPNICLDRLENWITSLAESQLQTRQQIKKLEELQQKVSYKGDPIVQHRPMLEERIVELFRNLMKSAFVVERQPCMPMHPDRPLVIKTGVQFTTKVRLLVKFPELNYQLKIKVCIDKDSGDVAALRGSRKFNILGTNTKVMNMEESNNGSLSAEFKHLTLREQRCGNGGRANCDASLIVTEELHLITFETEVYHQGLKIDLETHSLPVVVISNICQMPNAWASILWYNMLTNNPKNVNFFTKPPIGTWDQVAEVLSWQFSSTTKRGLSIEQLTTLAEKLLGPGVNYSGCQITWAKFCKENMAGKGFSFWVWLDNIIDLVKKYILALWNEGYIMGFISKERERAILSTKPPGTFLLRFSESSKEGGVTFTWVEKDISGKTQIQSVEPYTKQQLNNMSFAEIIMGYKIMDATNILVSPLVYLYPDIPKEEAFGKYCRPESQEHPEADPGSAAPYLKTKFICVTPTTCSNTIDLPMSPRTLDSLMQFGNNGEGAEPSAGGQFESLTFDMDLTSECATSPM
UniProt Q9DC69, residues 36-377: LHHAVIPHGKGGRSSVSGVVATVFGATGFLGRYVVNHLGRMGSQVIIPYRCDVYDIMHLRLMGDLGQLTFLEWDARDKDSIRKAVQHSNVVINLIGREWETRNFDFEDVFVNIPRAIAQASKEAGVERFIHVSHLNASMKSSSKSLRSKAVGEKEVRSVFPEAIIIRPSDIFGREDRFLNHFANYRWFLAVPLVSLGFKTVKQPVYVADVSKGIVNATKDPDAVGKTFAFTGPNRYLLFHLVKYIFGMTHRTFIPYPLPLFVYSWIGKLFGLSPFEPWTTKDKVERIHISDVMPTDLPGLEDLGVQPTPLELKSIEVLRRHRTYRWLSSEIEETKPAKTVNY

What was measured:
[1] = molecular target: NADH:ubiquinone oxidoreductase subunit A13 (mouse (endogenous in crude mitochondria)) (UniProt Q9ERS2); assay: co-IP; crude mitochondria solubilized with 2% digitonin (detergent:protein = 4:1), diluted five times with MRB; Protein A/G beads coated with STAT3, NDUFA13 or GFP antibody; overnight at 4°C; four washes with MRB; Western blot
[2] = molecular target: Signal transducer and activator of transcription 3 (mouse (endogenous in crude mitochondria)) (UniProt P42227); assay: as above

binding [1]: binds
binding [2]: no binding
Substance: NADH:ubiquinone oxidoreductase subunit A9 (from UniProt Q9DC69 36-377)
